Experimental data as given in the supplement of paper PMC12462457.
“And” between values parts separate entries of the source, which are not always exact repeats. Equal entries are not always repeated. Structures can show the parent of a compound that is named as a salt. ± gives the standard deviation of the averaged measurements. Some of the results follow. Repeats in this data set agree poorly, so a single value says little.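 Cells were counted by imaging DAPI-stained nuclei, and cells lacking phalloidin-stained cytoplasm were excluded as dead. Each well's count was divided by the median count of the vehicle wells on the same plate, and values were averaged over two replicate plates.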

System: OVCAR8
Experiment: cell count relative to DMSO vehicle (fold change); higher = more surviving senescent cells (less killing)
Conditions: senescence inducer: cisplatin 10 µM 48 h, then 6 d recovery (CP senescent), exposure time 24 h

Structure (SMILES) | cell count (compound dose 1 µM) | cell count (compound dose 5 µM)
Cc1ccc(/C=N/NC(=O)c2ccccc2Oc2ccccc2)o1 | 1.04 ± 0.11 | 1.05 ± 0.08
CC(C)(O)CC[C@@H](O)[C@](C)(O)[C@H]1CC[C@@]2(O)C3=CC(=O)[C@@H]4C[C@@H](O)[C@@H](O)C[C@]4(C)[C@H]3CC[C@]12C | 0.905 ± 0.0085 | 0.703 ± 0.076
C[n+]1cccc(C(=O)[O-])c1 | 0.836 ± 0.1 | 0.741 ± 0.088
COc1cc(C)c(/C=C/C(C)=C/C=C/C(C)=C/C(=O)O)c(C)c1C [Acitretin] | 1.02 ± 0.083 | 1 ± 0.15
O=c1[nH]c(=O)n([C@H]2C[C@H](O)[C@@H](CO)O2)cc1F [Floxuridine] | 0.987 ± 0.11 | 0.834 ± 0.16
COc1cc2c(NC3CCN(C)CC3)cc(-c3ccc(C)o3)nc2cc1OCCCN1CCCC1 | 0.875 ± 0.14 | 0.486 ± 0.077
C/C(=N\NC(=S)N1CCC1)c1ccccn1 | 0.875 ± 0.0028 | 0.984 ± 0.098
O=C1C(=O)N(Cc2ccc(Cl)c(Cl)c2)c2ccccc21 | 1.11 ± 0.16 | 0.93 ± 0.18
COc1cccc(-c2cc(F)c(Nc3ncccc3C(=O)O)c(F)c2)c1 | 1 ± 0.059 | 1.09 ± 0.19
O=C(O)C(Cc1ccccc1[N+](=O)[O-])=NNc1nc(-c2ccc(Cl)c(Cl)c2)cs1 (mixture of isomers) | 1.26 ± 0.08 | 1.18 ± 0.018
O=C(O)CSc1cc(NS(=O)(=O)c2ccc(Br)cc2)c2ccccc2c1O | 1.09 ± 0.037 | 0.764 ± 0.096
N#C[C@H]1[C@H](O)[C@@H](CO)O[C@H]1n1ccc(N)nc1=O [CNDAC (hydrochloride)] | 0.967 ± 0.03 | 0.925 ± 0.054
Nc1ncnc(N[C@@H]2O[C@H](CO)[C@@H](O)[C@H]2O)c1[N+](=O)[O-] [Clitocine] | 0.928 ± 0.1 | 0.931 ± 0.1
N[C@@H](CCC(=O)O)C(=O)O [L-Glutamic acid] | 1.19 ± 0.22 | 1.115 ± 0.011
COc1cc2c(cc1O)CC[C@@H]1[C@@H]2CC[C@]2(C)[C@@H](O)CC[C@@H]12 [2-Methoxyestradiol] | 1.08 ± 0.25 | 0.866 ± 0.031
O=c1[nH]c(=O)n([C@@H]2O[C@H](CO)[C@@H](O)[C@H]2O)cc1F [5-Fluorouridine] | 0.751 ± 0.1 | 0.618 ± 0.21
NC(=O)c1ccc2nc(-c3ccc(Oc4ccc(Cl)cc4)cc3)[nH]c2c1 | 0.987 ± 0.14 | 1.24 ± 0.073
Cc1cnc(Nc2ccc(N3CCN(C)CC3)cc2)nc1Nc1cccc(S(=O)(=O)NC(C)(C)C)c1 | 0.857 ± 0.24 | 0.293 ± 0.24
OCC1(O)COc2cc(O)ccc2-c2cc(O)c(O)cc2C1 (stereo not given) [Protosappanin B] | 0.911 ± 0.1 | 0.931 ± 0.21
CC[C@@]1(O)C(=O)OCc2c1cc1n(c2=O)Cc2cc3cc(O)ccc3nc2-1 [(S)-10-Hydroxycamptothecin] | 0.598 ± 0.039 | 0.701 ± 0.11
COc1ccc(-c2oc3c(CC=C(C)C)c(O)cc(O)c3c(=O)c2O[C@@H]2O[C@@H](C)[C@H](O)[C@@H](O)[C@H]2O)cc1 [Baohuoside I] | 1.12 ± 0.13 | 1.04 ± 0.017
CN1CCN(CCCNc2ncc(Cl)c(-c3cc4c(C(=O)NC5CC5)cccc4s3)n2)CC1 | 1.18 ± 0.086 | 1.09 ± 0.084

Structure (SMILES) | cell count (compound dose 1 µM) | cell count (compound dose 5 µM)
CC(C)=CCC[C@@H](C(=O)O)[C@H]1CC[C@@]2(C)C3=CC[C@H]4C(C)(C)[C@@H](O)CC[C@]4(C)C3=CC[C@]12C [3-Dehydrotrametenolic acid] | 1.12 ± 0.032 | 1.09 ± 0.076
NC1(c2ccc(-c3nc4ccn5c(=O)[nH]nc5c4cc3-c3ccccc3)cc2)CCC1 [MK-2206 (dihydrochloride)] | 0.83 ± 0.068 | 0.564 ± 0.29
C[C@@H]1O[C@@H](Oc2c(-c3ccc(O)c(O)c3)oc3cc(O)cc(O)c3c2=O)[C@H](O)[C@H](O)[C@H]1O [Quercitrin] | 1.093 ± 0.0028 | 0.809 ± 0.13
Cc1nn(C)c2nc(NNC(=O)Nc3cc(Cl)nc(Cl)c3)cc(C(C)C)c12 | 1.15 ± 0.23 | 0.711 ± 0.17
CC1(C)OC(=O)C=C[C@]2(C)[C@H]3CC[C@@]4(C)[C@H](c5ccoc5)OC(=O)[C@H]5O[C@]54[C@]3(C)C(=O)C[C@@H]12 [Obacunone] | 0.955 ± 0.22 | 0.962 ± 0.33
C[C@@H]1CC[C@@]2(NC1)O[C@H]1C[C@H]3[C@@H]4CC=C5C[C@@H](O[C@@H]6O[C@H](CO)[C@@H](O[C@@H]7O[C@@H](C)[C@H](O)[C@@H](O)[C@H]7O)[C@H](O)[C@H]6O[C@@H]6O[C@@H](C)[C@H](O)[C@@H](O)[C@H]6O)CC[C@]5(C)[C@H]4CC[C@]3(C)[C@H]1[C@@H]2C [Solamargine] | 1.06 ± 0.072 | 0.026 ± 0.02
O=C(O)Cc1ccccc1Nc1c(Cl)cccc1Cl [Diclofenac] | 1.01 ± 0.073 | 0.918 ± 0.036
O=C(O)Cc1ccccc1Nc1c(Cl)cccc1Cl [Diclofenac (potassium)] | 0.9575 ± 0.0092 | 1.11 ± 0.063
O=C(O)Cc1ccccc1Nc1c(Cl)cccc1Cl | 0.777 ± 0.076 | 0.629 ± 0.081
CNC(=O)c1ccccc1Oc1nc(Nc2cc(OC)c(OC)c(OC)c2)ncc1Br | 0.741 ± 0.18 | 0.736 ± 0.24
O=c1[nH]cc(F)c(=O)[nH]1 [5-Fluorouracil] | 1.19 ± 0.12 | 1.05 ± 0.26
O=C(O)c1cc(=O)c2cccc(O)c2[nH]1 | 1.177 ± 0.0092 | 0.75 ± 0.14
COc1cc2c(cc1OC)-c1cc3ccc(OC)c(OC)c3c[n+]1CC2 | 0.845 and 1.19 | 0.644 and 1.15
Cc1cc(-c2nc(-c3ccc(OC(F)(F)F)cc3)no2)nn1Cc1ccnc(N2CCN(C3CC3)CC2)c1 | 1.04 ± 0.15 | 0.967 ± 0.019
CSc1cccc(Nc2ncc3cc(-c4c(Cl)cccc4Cl)c(=O)n(C)c3n2)c1 | 0.403 ± 0.028 | 0.193 ± 0.029
Cc1cc(N2CCOCC2)ccc1Nc1nc(NC2CCCCC2)c2[nH]cnc2n1 | 1.544 ± 0.0064 | 1.38 ± 0.36
Cc1c(-c2ccc(N3CCc4cccc(C(=O)Nc5nc6ccccc6s5)c4C3)nc2C(=O)O)cnn1CC12CC3CC(CC(C3)C1)C2 | 1 ± 0.029 | 0.969 ± 0.036
O=c1c(-c2ccc(O)cc2)coc2cc(O)cc(O)c12 | 1.24 ± 0.13 | 1.17 ± 0.15
CCn1cc(-c2ccnc3[nH]c(-c4cccc(CN(C)C)c4)cc23)c(-c2ccc(NC(=O)N(C)C)cc2)n1 | 1.34 ± 0.069 | 1.11 ± 0.051
Cc1nc(Nc2n[nH]c3c2CN(C(=O)N[C@H](CN(C)C)c2ccccc2)C3(C)C)c2sccc2n1 | 0.726 ± 0.17 | 0.413 ± 0.0028
O=C(O[C@@H]1Cc2c(O)cc(O)cc2O[C@@H]1c1cc(O)c(O)c(O)c1)c1cc(O)c(O)c(O)c1 [(-)-Epigallocatechin Gallate] | 1.26 ± 0.068 | 0.8235 ± 0.0078
CCCCCCC/C=C/C(=O)CCc1ccc(O)c(OC)c1 [[8]-Shogaol] | 1.05 ± 0.15 | 0.927 ± 0.14

Copied from the list:
O=c1c(-c2ccc(O)cc2)coc2cc(O)cc(O)c12 – cell count (compound dose 5 µM): 1.17 ± 0.15
Cc1nn(C)c2nc(NNC(=O)Nc3cc(Cl)nc(Cl)c3)cc(C(C)C)c12 – cell count (compound dose 5 µM): 0.711 ± 0.17

More records

Structure (SMILES) | cell count (compound dose 1 µM) | cell count (compound dose 5 µM)
C[C@@H]1O[C@@H](O[C@@H]2[C@@H](O)[C@H](OCCc3ccc(O)c(O)c3)O[C@H](CO)[C@H]2OC(=O)/C=C/c2ccc(O)c(O)c2)[C@H](O)[C@H](O)[C@H]1O [Verbascoside] | 1.16 | 0.767 ± 0.022
Oc1ccc(Nc2nc(-c3ccc(Cl)cc3)cs2)cc1 | 1.08 ± 0.026 | 0.886 ± 0.58
O=C1O[C@H]2[C@@H]3OC(=O)c4cc(O)c(O)c(O)c4-c4c(cc(O)c(O)c4O)C(=O)OC[C@H]2O[C@@H](OC(=O)c2cc(O)c(O)c(O)c2)[C@@H]3OC(=O)c2cc(O)c(O)c3c2[C@@H]2C1=CC(=O)[C@](O)(O3)C2(O)O [Geraniin] | 1.14 ± 0.032 | 0.881 ± 0.16
CO[C@H]1C[C@@H]2CC[C@@H](C)[C@@](O)(O2)C(=O)C(=O)N2CCCC[C@H]2C(=O)O[C@H]([C@H](C)C[C@@H]2CC[C@@H](O)[C@H](OC)C2)CC(=O)[C@H](C)/C=C(\C)[C@@H](O)[C@@H](OC)C(=O)[C@H](C)C[C@H](C)/C=C/C=C/C=C/1C [Rapamycin] | 0.93 ± 0.21 | 0.756 ± 0.11
N[C@@H]1CCCN(c2c(/C=C3\SC(=O)NC3=O)cccc2-c2ccccc2)C1 | 1.15 ± 0.04 | 1.04 ± 0.22
CCOc1ccc(-c2cn(C)nc2-c2cc(OC)c(OC)c(OC)c2)cc1 [Tubulin inhibitor 1] | 0.691 ± 0.021 | 0.744 ± 0.12
Cc1[nH]c(/C=C2\C(=O)Nc3ccccc32)c(C)c1CCC(=O)O [Orantinib] | 0.7245 ± 0.005 | 0.807 ± 0.027
COc1cc(OC)cc(N(CCNC(C)C)c2ccc3ncc(-c4cnn(C)c4)nc3c2)c1 [Erdafitinib] | 1.08 ± 0.22 | 0.553 ± 0.39
CONC(=O)c1ccccc1Nc1cc(Nc2cc(C)nn2C(C)C)ncc1Cl | 0.761 ± 0.031 | 0.853 ± 0.11
C=CCc1ccc(O)c(OC)c1 | 1.2 ± 0.34 | 0.752 ± 0.3
OC[C@@H](O)[C@@H](O)[C@H](O)[C@H](O)CO | 1.03 ± 0.063 | 0.923 ± 0.47
CC(C(=O)O)c1cccc(Oc2ccccc2)c1 (stereo not given) [Fenoprofen (Calcium hydrate)] | 0.8175 ± 0.0064 | 0.734 ± 0.066
Oc1ccc(C2CNCCc3c2cc(O)c(O)c3Cl)cc1 (stereo not given) | 1.1 ± 0.16 | 0.875 ± 0.019
O=C1NC(=O)/C(=C/c2ccc3nccc(-c4ccncc4)c3c2)S1 | 0.885 ± 0.031 | 0.844 ± 0.099
O=C1NC(=O)C(c2ccccc2[N+](=O)[O-])=C1Nc1ccc(O)c(Cl)c1 | 1.06 ± 0.15 | 0.817 ± 0.15
C[N+](C)(C)CCOP(=O)(O)OP(=O)([O-])OC[C@H]1O[C@@H](n2ccc(N)nc2=O)[C@H](O)[C@@H]1O | 1.18 ± 0.09 | 1.27 ± 0.018
CC1(C)C[C@@H](O)[C@]2(C)CC[C@]3(C)C(=CC[C@@H]4[C@@]5(C)CC[C@H](O)[C@](C)(CO)[C@@H]5CC[C@]43C)[C@@H]2C1 [Soyasapogenol B] | 0.767 ± 0.013 | 0.667 ± 0.24
C[C@@H]1O[C@@H](O[C@H]2[C@H](O[C@H]3[C@H](O[C@H]4CC[C@]5(C)[C@H]6CC=C7[C@@H]8CC(C)(C)CC[C@]8(C(=O)O)CC[C@@]7(C)[C@]6(C)CC[C@H]5C4(C)C)OC[C@H](O)[C@@H]3O)O[C@H](CO)[C@@H](O)[C@@H]2O)[C@H](O)[C@H](O)[C@H]1O [Raddeanin A] | 1.04 ± 0.14 | 0.072 ± 0.05
CCCCCN(C)CCC(O)(P(=O)(O)O)P(=O)(O)O | 0.995 ± 0.18 | 0.901 ± 0.12
CCS(=O)(=O)Nc1ccc(Oc2ccc(F)cc2F)c(-c2cn(C)c(=O)c3[nH]ccc23)c1 [Mivebresib] | 0.454 ± 0.0071 | 0.191 ± 0.036
O=c1ccc2cc3ccoc3cc2o1 [Psoralen] | 1.01 ± 0.19 | 0.717 ± 0.12
